Experimental data as given in paper PMC9204177.

Molecular target: recombinant TMEM95∆Tm (mouse TMEM95 lacking the transmembrane domain) (mouse)
Assay: affinity purification with mass spectrometry; TMEM95∆Tm held by its His tag on His Mag Sepharose Excel beads; incubated overnight at 4°C with the supernatant of WT mouse sperm lysate (50 mM Tris-HCl pH 7.5, 1 mM EDTA, 1% Igepal); eluted with 500 mM imidazole; HPLC-MS/MS; proteins also found with unconjugated beads or with conjugated beads without sperm lysate were removed by a Venn diagram; only the target purified

binding	Binder
no binding	IZUMO1 (protein, UniProt Q9D9J7 22-397) CIKCDQFVTDALKTFENTYLNDHLPHDIHKNVMRMVNHEVSSFGVVTSAEDSYLGAVDENTLEQATWSFLKDLKRITDSDLKGELFIKELLWMLRHQKDIFNNLARQFQKEVLCPNKCGVMSQTLIWCLKCEKQLHICRKSLDCGERHIEVHRSEDLVLDCLLSWHRASKGLTDYSFYRVWENSSETLIAKGKEPYLTKSMVGPEDAGNYRCVLDTINQGHATVIRYDVTVLPPKHSEENQPPNIITQEEHETPVHVTPQTPPGQEPESELYPELHPELYPELIPTVAQNPEKKMKTRLLILLTLGFVVLVASIIISVLHFRKVSAKLKNASDEVKPTASGSKSDQSLSQQMGLKKASQADFNSDYSGDKSEATEN
no binding	SPACA6 (protein, UniProt E9Q8Q8 42-339) CLFCFTTYEERLRVCQLFVGREETKINLCRNELEGAFEDLKDMKINYDERSYLHDEFTQMTVSLQEKAARRREPFWLAFKDAAAKLKRTIEHLKKAPACIPPCGLQEVARLFHCSGCFSKLCDLPLDCPVQDMLVNRGDQALFSCIVAFELPESEITYSWKFVGGVRTKDVTYFRDMPGAHGYLARIRPVQPKHGGTFSCVILHDQRPLARLYFYLNVTGPPPPEDTELQVTFREVMNRTPAEPEMIQPWSPSLGELLTNPQALTLGNLFLLAATAALGSASVTLLVWLFFRWYLSGN
no binding	DCST1 (protein, UniProt Q059Y8 1-732) MAFLSSTLHSLGIFEKISRIKEVLKNRLLDLTKRRDQAREQQRKRPHTIIQGLLLWSLPVSWIRFLWRQPGEFPVTAFLLGAGTGGLLAIGLFQLLVNPMNIYEEQKVVALYCLASLGAIGWGTSPHIRCASLLLVPKMLGKEGRLFVMGYALAAIYSGPAANLRSNINEVIASLGCTVELQINNTRSAWRVSTAPLRAVFKGMVGSKDSLNKEIQNVSTSFEEMDEQVKSDAGYSSEDWDKNRESTEMFGTSRVRPYLSTQMVYELRTRLRCIHVVNKAILSCYRWFDKKHKNCMRRIHLPLFNNMICVPMKFKFLCNIAKVIEIWCYKRIPVEGNFGQTYDSVNQSIHGLSGEFSANINLKEEKQSSMVGLNTTNWEHMGTEVRDYVRQQETYLQWAMGLLHVLLSCTFLLVFHSAFSYMDHYNWDIRFDNIYISTYFCQIDARRKKLGKQSLLPLRKAERKTVIFPFKATIQAWEMRYVIRELLETLPIVLLLLVLCAIDWALYSVFDTIRQHSFVQYSFRSSHKLEIKVEGDSILAKLLRKTIGALNTSSSTDVETNNMPCLPQPISLNARDYFKASLPTLLLVCLCLAQAFGYRLRRVIAAFYFPKREKKRALFFYNEFLKKRSAFTKLRRAAIVRRANQQKAPPHYLVEALYRRCPLLHRFMRQRCVVCQAMETPDSYVCPTPDCKALYCRSCWDDMQRLCPVCTPREELSSSAHSDSNDDAVYGD

No constants are given. Whether binding was seen depends on the method and setting. In cells and extracts the contact can be indirect. These calls come from enrichment with a bait or labelling near it, and not all partners need be listed. A no says only that the protein was not detected with the bait.
